Experimental data reported in article PMC7990204.
These are yes or no findings as the source states them, for the method shown. Binding seen in cells or lysates may run through a third protein. Some results given as binding are weak or reduced against the parent protein; the word gives no strength. Where a sequence is shown, tags or fusion partners need not be part of it.

Legend:
[1] = molecular target: T1, SMC1A (wildtype) (mouse (endogenous in V6.5 mESCs)) (UniProt Q9CU62); assay: co-IP; endogenous proteins; 250 ug benzonase-treated nuclear extract of wildtype or SMC1A-R586W mESCs in 500 ul 1x low-stringency IP buffer, overnight at 4 C; 10 ug antibody (SMC1A, NIPBL, STAG2 or non-specific rabbit IgG) on Protein G Dynabeads; western blot
T1 sequence: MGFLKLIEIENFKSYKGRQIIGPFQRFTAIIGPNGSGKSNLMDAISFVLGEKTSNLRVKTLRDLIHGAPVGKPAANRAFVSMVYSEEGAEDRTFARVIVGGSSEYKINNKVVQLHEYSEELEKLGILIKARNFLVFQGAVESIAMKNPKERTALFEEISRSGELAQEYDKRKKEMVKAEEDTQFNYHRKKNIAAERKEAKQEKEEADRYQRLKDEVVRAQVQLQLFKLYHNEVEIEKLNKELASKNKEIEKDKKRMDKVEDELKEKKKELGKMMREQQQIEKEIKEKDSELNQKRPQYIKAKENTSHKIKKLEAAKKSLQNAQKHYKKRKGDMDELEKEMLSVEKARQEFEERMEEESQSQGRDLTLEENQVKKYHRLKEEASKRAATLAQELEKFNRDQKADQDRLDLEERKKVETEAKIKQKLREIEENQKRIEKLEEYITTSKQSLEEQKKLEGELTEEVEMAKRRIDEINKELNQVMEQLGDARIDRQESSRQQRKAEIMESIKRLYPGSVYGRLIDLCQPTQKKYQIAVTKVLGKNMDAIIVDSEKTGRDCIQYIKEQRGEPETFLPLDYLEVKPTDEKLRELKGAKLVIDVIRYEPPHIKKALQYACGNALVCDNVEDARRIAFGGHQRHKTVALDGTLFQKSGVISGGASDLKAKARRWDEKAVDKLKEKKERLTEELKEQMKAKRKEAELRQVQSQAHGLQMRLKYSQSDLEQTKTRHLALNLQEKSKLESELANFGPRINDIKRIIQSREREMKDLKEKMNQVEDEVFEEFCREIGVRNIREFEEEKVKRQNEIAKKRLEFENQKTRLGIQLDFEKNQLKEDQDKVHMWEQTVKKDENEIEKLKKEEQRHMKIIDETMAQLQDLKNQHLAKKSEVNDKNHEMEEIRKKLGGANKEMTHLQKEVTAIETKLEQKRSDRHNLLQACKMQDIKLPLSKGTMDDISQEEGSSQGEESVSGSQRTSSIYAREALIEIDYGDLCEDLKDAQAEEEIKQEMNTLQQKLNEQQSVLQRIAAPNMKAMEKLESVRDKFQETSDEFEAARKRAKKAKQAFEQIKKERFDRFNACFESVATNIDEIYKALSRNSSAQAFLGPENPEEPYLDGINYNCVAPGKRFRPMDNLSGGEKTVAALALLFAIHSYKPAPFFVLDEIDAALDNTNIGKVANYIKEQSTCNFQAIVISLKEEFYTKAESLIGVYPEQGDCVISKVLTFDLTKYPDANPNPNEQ

[2] = molecular target: T2, SMC1A-R586W (mouse (endogenous in V6.5 mESCs)) (UniProt Q9CU62); assay: as above
T2 sequence: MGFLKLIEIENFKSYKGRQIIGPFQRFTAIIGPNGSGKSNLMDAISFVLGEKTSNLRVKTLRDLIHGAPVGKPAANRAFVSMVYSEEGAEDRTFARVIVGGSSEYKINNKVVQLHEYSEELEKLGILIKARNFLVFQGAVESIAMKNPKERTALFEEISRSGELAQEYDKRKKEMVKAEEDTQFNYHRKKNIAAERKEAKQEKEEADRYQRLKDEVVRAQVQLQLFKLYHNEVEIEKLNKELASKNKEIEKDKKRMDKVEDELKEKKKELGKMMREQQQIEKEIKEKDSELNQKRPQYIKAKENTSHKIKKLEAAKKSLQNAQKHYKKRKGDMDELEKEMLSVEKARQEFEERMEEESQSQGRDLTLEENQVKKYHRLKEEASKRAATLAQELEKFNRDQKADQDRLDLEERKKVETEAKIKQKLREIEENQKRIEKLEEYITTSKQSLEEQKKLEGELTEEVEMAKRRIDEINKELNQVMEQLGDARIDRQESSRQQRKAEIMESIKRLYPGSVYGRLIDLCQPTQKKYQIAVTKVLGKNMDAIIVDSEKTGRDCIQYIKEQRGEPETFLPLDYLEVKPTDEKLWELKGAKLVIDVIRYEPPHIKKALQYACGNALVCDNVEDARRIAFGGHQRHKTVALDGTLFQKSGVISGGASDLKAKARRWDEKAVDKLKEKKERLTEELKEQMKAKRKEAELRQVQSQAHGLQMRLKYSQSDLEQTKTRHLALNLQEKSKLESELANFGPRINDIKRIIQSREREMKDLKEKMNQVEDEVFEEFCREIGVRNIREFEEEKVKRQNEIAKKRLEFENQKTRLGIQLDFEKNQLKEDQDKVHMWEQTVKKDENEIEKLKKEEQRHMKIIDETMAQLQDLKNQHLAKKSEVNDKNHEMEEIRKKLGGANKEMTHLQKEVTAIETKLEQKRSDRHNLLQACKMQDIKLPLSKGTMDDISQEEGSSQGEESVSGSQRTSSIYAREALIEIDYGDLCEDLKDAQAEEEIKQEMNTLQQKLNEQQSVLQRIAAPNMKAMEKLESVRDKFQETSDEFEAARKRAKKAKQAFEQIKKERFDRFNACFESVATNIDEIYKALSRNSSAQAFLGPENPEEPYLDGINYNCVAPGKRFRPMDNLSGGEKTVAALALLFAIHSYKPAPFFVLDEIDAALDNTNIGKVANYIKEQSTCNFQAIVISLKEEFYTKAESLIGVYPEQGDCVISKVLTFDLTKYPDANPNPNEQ

B1: STAG2 (protein, UniProt O35638 1-1231)
chain: MIAAPEIPTDFNLLQESETHFSSDTDFEDIEGKNQKQGKGKTCKKGKKGPAEKGKSGNGGGKPPSGSNRMNGHHQQNGVENMMLFEVVKMGKSAMQSVVDDWIESYKHDRDIALLDLINFFIQCSGCKGVVTAEMFRHMQNSEIIRKMTEEFDEDSGDYPLTMAGPQWKKFKSSFCEFIGVLVRQCQYSIIYDEYMMDTVISLLTGLSDSQVRAFRHTSTLAAMKLMTALVNVALNLSINMDNTQRQYEAERNKMIGKRANERLELLLQKRKELQENQDEIENMMNAIFKGVFVHRYRDAIAEIRAICIEEIGIWMKMYSDAFLNDSYLKYVGWTMHDKQGEVRLKCLTALQGLYYNKELNSKLELFTSRFKDRIVSMTLDKEYDVAVQAIKLLTLVLQSSEEVLTAEDCENVYHLVYSAHRPVAVAAGEFLYKKLFSRRDPEEDGLMKRRGRQGPNANLVKTLVFFFLESELHEHAAYLVDSMWDCATELLKDWECMNSLLLEEPLSGEEALTDRQESALIEIMLCTIRQAAECHPPVGRGTGKRVLTAKEKKTQLDDRTRITELFAVALPQLLAKYSVDAEKVTNLLQLPQYFDLEIYTTGRLEKHLDALLRQIRNIVEKHTDTDVLEACSKTYHALCNEEFTIFNRVDISRSQLIDELADKFNRLLEDFLQEGEEPDEDDAYQVLSTLKRITAFHNAHDLSKWDLFACNYKLLKTGIENGDMPEQIVIHALQCAHYVILWQLAKITESTSTKEDLLRLKKQMRVFCQICQHYLTNVNTTVKEQAFTILCDILMIFSHQIMSGGRDMLEPLVYTPDSSLQSELLSFILDHVFIEQDDDSNSADGQQEDEASKIEALHKRRNLLAAFCKLIVYTVVEMNTAADIFKQYMKYYNDYGDIIKETMSKTRQIDKIQCAKTLILSLQQLFNEMIQENGYNFDRSSSTFSGIKELARRFALTFGLDQLKTREAIAMLHKDGIEFAFKEPNPQGESHPPLNLAFLDILSEFSSKLLRQDKRTVYVYLEKFMTFQMSLRREDVWLPLMSYRNSLLAGGDDDTMSVISGMSSRGSTVRSKKSKPSTGKRKVVEGMQLALPEESSSSDSMWLSREQTLHTPVMMQTPQLTSTIMREPKRLRPEDSFMSVYPMQAEHHQTPLDYNRRGTSLMEDDEEPIVEDVMMSSEGRIEDLNEGMDFDTMDIDLPPSKNRRERTELKPDFFDPASIMDESVLGVSMF
binding [1]: binds
binding [2]: binds
